Results as given in US8598120B2 (Amylin Pharmaceuticals, LLC, priority 2004, dated 2013).
At least one peptide structure holds a part that was inferred or is arguable (an end, a ring closure or a residue). Bridge positions count the residues as written; N and C are the ends. Peptide text beside a SMILES is read from it.

Protein sequences, listed by entry. Tags and fused reporters are not part of them. Residues count along the entry.
UniProt O60894, 27-148 partner: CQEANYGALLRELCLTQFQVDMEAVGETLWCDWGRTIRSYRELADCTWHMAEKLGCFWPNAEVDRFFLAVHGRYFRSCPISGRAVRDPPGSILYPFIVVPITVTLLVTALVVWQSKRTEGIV
UniProt Q16602, 23-461: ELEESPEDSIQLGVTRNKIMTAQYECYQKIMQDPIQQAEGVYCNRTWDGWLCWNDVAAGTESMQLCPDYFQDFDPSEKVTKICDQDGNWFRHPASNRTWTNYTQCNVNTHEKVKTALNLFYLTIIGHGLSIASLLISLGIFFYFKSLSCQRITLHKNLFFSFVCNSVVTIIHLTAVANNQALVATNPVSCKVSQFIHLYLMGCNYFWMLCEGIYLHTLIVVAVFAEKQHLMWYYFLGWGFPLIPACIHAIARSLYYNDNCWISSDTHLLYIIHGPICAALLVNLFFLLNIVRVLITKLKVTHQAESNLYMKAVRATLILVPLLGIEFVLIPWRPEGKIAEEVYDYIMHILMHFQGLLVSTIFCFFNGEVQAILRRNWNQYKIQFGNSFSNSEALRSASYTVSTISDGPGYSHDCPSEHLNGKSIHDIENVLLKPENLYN

How the values were obtained:
amylin receptors = target: T1, amylin receptors (Rattus norvegicus, UniProt P32214); assay: Amylin receptor binding assay (125I-rat amylin competition, rat basal forebrain membranes); conditions: read-out: EC50 values (nM) for polypeptides: Amylin, rat brain membranes
T1 construct: This basal forebrain tissue, containing the nucleus accumbens and surrounding regions, is weighed and homogenized; from tissue; host or cells: rat basal forebrain (nucleus accumbens and surrounding regions) membranes
T1 sequence (P32214 25-516): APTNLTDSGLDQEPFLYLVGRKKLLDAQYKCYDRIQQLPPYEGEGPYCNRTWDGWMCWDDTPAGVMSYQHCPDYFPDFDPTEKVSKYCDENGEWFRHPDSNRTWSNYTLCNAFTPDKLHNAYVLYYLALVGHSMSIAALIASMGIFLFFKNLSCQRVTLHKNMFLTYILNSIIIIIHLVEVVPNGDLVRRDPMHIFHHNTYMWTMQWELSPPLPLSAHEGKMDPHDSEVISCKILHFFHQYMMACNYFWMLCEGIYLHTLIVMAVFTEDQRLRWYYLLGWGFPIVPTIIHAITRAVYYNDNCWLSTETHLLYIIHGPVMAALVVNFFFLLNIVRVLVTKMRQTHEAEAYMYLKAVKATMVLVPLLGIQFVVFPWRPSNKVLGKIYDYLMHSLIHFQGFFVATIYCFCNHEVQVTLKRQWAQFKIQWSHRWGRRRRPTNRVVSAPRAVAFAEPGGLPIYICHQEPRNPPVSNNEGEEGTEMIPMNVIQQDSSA

calcitonin receptor = target: T2, calcitonin receptor (Homo sapiens, UniProt P30988); assay: Calcitonin receptor binding assay (CHO or T47D cells); conditions: read-out: EC50 values (nM) for polypeptides: Calcitonin
T2 construct: T47D cells, which also express the calcitonin receptor; endogenous in cells; host or cells: T47D cells (or CHO cells)
T2 sequence (P30988 25-474): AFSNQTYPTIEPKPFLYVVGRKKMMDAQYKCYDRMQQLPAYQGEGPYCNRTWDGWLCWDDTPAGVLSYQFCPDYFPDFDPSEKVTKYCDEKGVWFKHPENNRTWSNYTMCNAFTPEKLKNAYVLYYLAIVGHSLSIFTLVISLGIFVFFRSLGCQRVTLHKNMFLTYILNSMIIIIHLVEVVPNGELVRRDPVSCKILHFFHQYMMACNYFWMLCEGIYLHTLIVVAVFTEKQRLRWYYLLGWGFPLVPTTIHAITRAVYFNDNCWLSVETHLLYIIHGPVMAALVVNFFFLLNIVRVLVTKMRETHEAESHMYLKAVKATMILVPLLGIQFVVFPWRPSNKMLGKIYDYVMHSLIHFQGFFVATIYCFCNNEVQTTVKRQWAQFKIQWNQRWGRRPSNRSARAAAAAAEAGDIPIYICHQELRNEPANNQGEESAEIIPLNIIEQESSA

[1] = Food intake assay in overnight fasted mice; assay type: in vivo; conditions: 25 nmol/kg intraperitoneal
Experimental: Female NIH/Swiss mice (8-14 weeks old) were group housed with a 12:12 hour light:dark cycle. Water and a standard pelleted mouse chow diet are available ad libitum, except as noted. Animals are fasted starting at approximately 1500 hrs, 1 day prior to experiment.
The effects of treatment on food intake are expressed as % change relative to control.

CGRP receptors = target: T3, CGRP receptors (Homo sapiens, UniProt O60894+Q16602); assay: CGRP receptor binding assay (125I hCGRP, SK-N-MC cell membranes); conditions: read-out: EC50 values (nM) for polypeptides: CGRP
T3 construct: membranes prepared from SK-N-MC cells, known to express CGRP receptors; endogenous in cells; host or cells: SK-N-MC cells (membranes)

SMILES	EC50 (amylin receptors) [nM]	EC50 (calcitonin receptor) [nM]	cumulative food intake compared to vehicle, 30 min [1] [%]	cumulative food intake compared to vehicle, 60 min [1] [%]	cumulative food intake compared to vehicle, 120 min [1] [%]	cumulative food intake compared to vehicle, 180 min [1] [%]	EC50 (CGRP receptors) [nM]
CC(C)C[C@H](NC(=O)[C@H](CCCNC(=N)N)NC(=O)[C@H](CCC(N)=O)NC(=O)[C@@H](NC(=O)[C@H](C)NC(=O)[C@@H]1CSSC[C@H](NC(=O)[C@@H](N)CCCCN)C(=O)N[C@@H](CC(N)=O)C(=O)N[C@@H]([C@@H](C)O)C(=O)N[C@@H](C)C(=O)N[C@@H]([C@@H](C)O)C(=O)N1)[C@@H](C)O)C(=O)N[C@@H](C)C(=O)N[C@@H](CC(N)=O)C(=O)N[C@@H](CCC(=O)O)C(=O)N[C@@H](CC(C)C)C(=O)N[C@H](C(=O)N[C@@H](CCCNC(=N)N)C(=O)N[C@@H](CC(C)C)C(=O)N[C@@H](CCC(N)=O)C(=O)N[C@H](C(=O)N[C@@H](Cc1ccc(O)cc1)C(=O)N1CCC[C@H]1C(=O)N[C@@H](CCCNC(=N)N)C(=O)N[C@H](C(=O)N[C@@H](CC(N)=O)C(=O)N[C@H](C(=O)NCC(=O)N[C@@H](CO)C(=O)N[C@@H](CC(N)=O)C(=O)N[C@H](C(=O)N[C@@H](Cc1ccc(O)cc1)C(N)=O)[C@@H](C)O)C(C)C)[C@@H](C)O)[C@@H](C)O)C(C)C [Compound 3] (H-KCNTATCATQRLANELVRLQTYPRTNVGSNTY-NH2; disulfide 2-7 (inferred); N-terminus and C-terminus assumed)	0.023	0.02	−58	−52	−37	−33	0.49
CC(C)C[C@H](NC(=O)[C@H](CCCCN)NC(=O)CNC(=O)[C@H](CC(C)C)NC(=O)[C@@H](NC(=O)[C@@H]1CSSC[C@H](NC(=O)[C@@H](N)CCCCN)C(=O)N[C@@H](CC(N)=O)C(=O)N[C@@H]([C@@H](C)O)C(=O)N[C@@H](C)C(=O)N[C@@H]([C@@H](C)O)C(=O)N1)C(C)C)C(=O)N[C@@H](CO)C(=O)N[C@@H](CCC(N)=O)C(=O)N[C@@H](CCC(=O)O)C(=O)N[C@@H](CC(C)C)C(=O)N[C@@H](Cc1c[nH]cn1)C(=O)N[C@@H](CCCNC(=N)N)C(=O)N[C@@H](CC(C)C)C(=O)N[C@@H](CCC(N)=O)C(=O)N[C@H](C(=O)N[C@@H](Cc1ccc(O)cc1)C(=O)N1CCC[C@H]1C(=O)N[C@@H](CCCNC(=N)N)C(=O)N[C@H](C(=O)N[C@@H](CC(N)=O)C(=O)N[C@H](C(=O)NCC(=O)N[C@@H](CO)C(=O)N[C@@H](CC(N)=O)C(=O)N[C@H](C(=O)N[C@@H](Cc1ccc(O)cc1)C(N)=O)[C@@H](C)O)[C@@H](C)O)[C@@H](C)O)[C@@H](C)O [Compound 4] (H-KCNTATCVLGKLSQELHRLQTYPRTNTGSNTY-NH2; disulfide 2-7 (inferred); N-terminus and C-terminus assumed)	0.035	0.019	−42	−31	−35	−30	8.5
CC(C)C[C@H](NC(=O)[C@H](CCCNC(=N)N)NC(=O)[C@H](CCC(N)=O)NC(=O)[C@@H](NC(=O)[C@H](C)NC(=O)[C@@H]1CSSC[C@H](N)C(=O)N[C@@H](CO)C(=O)N[C@@H](CC(N)=O)C(=O)N[C@@H](CC(C)C)C(=O)N[C@@H](CO)C(=O)N[C@@H]([C@@H](C)O)C(=O)N1)[C@@H](C)O)C(=O)N[C@@H](C)C(=O)N[C@@H](CC(N)=O)C(=O)N[C@@H](CCC(=O)O)C(=O)N[C@@H](CC(C)C)C(=O)N[C@H](C(=O)N[C@@H](CCCNC(=N)N)C(=O)N[C@@H](CC(C)C)C(=O)N[C@@H](CCC(N)=O)C(=O)N[C@H](C(=O)N[C@@H](Cc1ccc(O)cc1)C(=O)N1CCC[C@H]1C(=O)N[C@@H](CCCNC(=N)N)C(=O)N[C@H](C(=O)N[C@@H](CC(N)=O)C(=O)N[C@H](C(=O)NCC(=O)N[C@@H](CO)C(=O)N[C@@H](CC(N)=O)C(=O)N[C@H](C(=O)N[C@@H](Cc1ccc(O)cc1)C(N)=O)[C@@H](C)O)C(C)C)[C@@H](C)O)[C@@H](C)O)C(C)C [Compound 7] (H-CSNLSTCATQRLANELVRLQTYPRTNVGSNTY-NH2; disulfide 1-7 (inferred); N-terminus and C-terminus assumed)	0.057	–	−60	−52	−23	–	7.54
CC(C)C[C@H](NC(=O)[C@H](CCCNC(=N)N)NC(=O)CNC(=O)[C@H](CC(C)C)NC(=O)[C@@H](NC(=O)[C@@H]1CSSC[C@H](NC(=O)[C@@H](N)CCCCN)C(=O)N[C@@H](CC(N)=O)C(=O)N[C@@H]([C@@H](C)O)C(=O)N[C@@H](C)C(=O)N[C@@H]([C@@H](C)O)C(=O)N1)C(C)C)C(=O)N[C@@H](CO)C(=O)N[C@@H](CCC(N)=O)C(=O)N[C@@H](CCC(=O)O)C(=O)N[C@@H](CC(C)C)C(=O)N[C@@H](Cc1c[nH]cn1)C(=O)N[C@@H](CCCNC(=N)N)C(=O)N[C@@H](CC(C)C)C(=O)N[C@@H](CCC(N)=O)C(=O)N[C@H](C(=O)N[C@@H](CC(C)C)C(=O)N[C@@H](CCC(N)=O)C(=O)N[C@H](C(=O)N[C@@H](Cc1ccc(O)cc1)C(=O)N1CCC[C@H]1C(=O)N[C@@H](CCCNC(=N)N)C(=O)N[C@H](C(=O)N[C@@H](CC(N)=O)C(=O)N[C@H](C(=O)NCC(=O)N[C@@H](CO)C(=O)N[C@@H](CC(N)=O)C(=O)N[C@H](C(=O)N[C@@H](Cc1ccc(O)cc1)C(N)=O)[C@@H](C)O)[C@@H](C)O)[C@@H](C)O)[C@@H](C)O)[C@@H](C)O [Compound 9] (H-KCNTATCVLGRLSQELHRLQTLQTYPRTNTGSNTY-NH2; disulfide 2-7 (inferred); N-terminus and C-terminus assumed)	0.043	0.014	−80	−64	−43	–	1.6
